Measurements: PubChem BioAssay AID504834 (National Center for Advancing Translational Sciences (NCATS), 2011)
About 22,000 (6.9%) of roughly 320,000 compounds were called active. This list was built around the results that the source calls inconclusive (neither active nor inactive); the mix of calls is not that of the screen. Calls come from the whole dose curve; as a rule, active = well fitted inhibition curve with a large enough effect; inconclusive = small, poorly fitted or top-dose-only effect, or another doubt; inactive = no such curve, though single readings can be large or run the other way. Where the call is inconclusive, the potency comes from a doubtful curve fit.

Test: Primary qHTS for delayed death inhibitors of the malarial parasite plastid, 96 hour incubation
Conditions: P. falciparum luciferase reporter growth; series mostly up to 28.7 µM
Summary of the method: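 Delayed-death screen, second-generation endpoint: infected erythrocytes, 2% hematocrit, 0.05% parasitemia final; 96 hours at 37 C, 5% CO2; luciferase detection reagent; luminescence decrease equals reduced growth.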
Potency is the fitted concentration of half-maximal effect.

SMILES | Potency
CC[C@@]12C(=O)N(c3cccc(Br)c3)C(=O)N1[C@H](c1ccc(Cl)cc1)[C@@H]1C(=O)N(C3CCCCC3)C(=O)[C@@H]12 | active: 8.28 µM
CC(C)Cn1c(CN2CCN(C(=O)c3ccco3)CC2)nc2c1c(=O)n(C)c(=O)n2C | inactive
CC(=O)NC1C(OCCOc2ccc(Cl)cc2C)OC(CO)C(O)C1O (stereo not drawn) | inconclusive: 5.22 µM [inhibitor, partial curve, poor fit]
Cc1ccc(C)c(OC(=O)c2cccnc2)c1 | inconclusive: 10.4 µM [inhibitor, single point]
O=c1cc(O)c2sc3nc(-c4ccccc4)cc(C(F)(F)F)c3c2[nH]1 | inconclusive: 2.62 µM [inhibitor, full curve, poor fit]
CCOC(=O)c1ccc(N/C=C/C(=O)c2ccc(OC)cc2)cc1 | inactive
COc1ccc(/C=C/C(=O)OCC(=O)Nc2ccc(Cl)c(S(=O)(=O)N(C)C)c2)cc1OC | inconclusive: 13.1 µM [inhibitor, partial curve, poor fit]
CCOc1cc(N2CCOCC2)c(OCC)cc1NC(=O)CN1CCCC(C)C1 (stereo not drawn) | inconclusive: 10.4 µM [inhibitor, single point]
O=C(CNc1cccc2ccccc12)N/N=C/c1ccccn1 | inactive
COc1ccc(S(=O)(=O)Nc2c(C)n(C)n(-c3ccccc3)c2=O)cc1C(=O)O | inactive
CCOc1ccccc1N1CCN(C(=O)c2ccc3[nH]c4c(c3c2)CCCC4)CC1 | inconclusive: 18.5 µM [inhibitor, single point]
CC1CC(C)CN(C(=O)C2CCCN(S(=O)(=O)c3cnc[nH]3)C2)C1 (stereo not drawn) | inactive
OCCC1CN(Cc2ccc(-n3cccn3)cc2)CCN1Cc1ccccc1 (stereo not drawn) | active: 8.28 µM
COc1ccc(S(=O)(=O)Cc2ccc(C(=O)NCCCN3CCc4ccccc4C3)o2)cc1 | inconclusive: 18.5 µM [inhibitor, single point]
CCOC(=O)c1c(CN(CC)CC)n(C)c2cc(Br)c(O)cc12 | inconclusive: 1.65 µM [inhibitor, partial curve, poor fit]
O=C(CCNC(=O)c1ccccc1Cl)Nc1ccc(Cl)c(C(F)(F)F)c1 | inconclusive: 0.586 µM [inhibitor, full curve, poor fit]
CCCN(CC1CC1)c1nc(N)c(C#N)c(CC#N)c1C#N | inconclusive: 13.1 µM [inhibitor, single point]
CCOC(=O)CC1NC(=O)c2ccccc21 (stereo not drawn) | inconclusive: 20.8 µM [inhibitor, partial curve, poor fit]
CN1CCN(C(=O)c2ccc3c(=O)n(-c4ccc(F)cc4)c(=S)[nH]c3c2)CC1 | inconclusive: 6.57 µM [inhibitor, partial curve, poor fit]
O=C(NC1CCCC1)C(c1ccncc1)N(Cc1ccccc1)C(=O)Cc1cccs1 (stereo not drawn) | inconclusive: 13.1 µM [inhibitor, partial curve, poor fit]
N#Cc1ccccc1NC1=CC(=O)CCC1 | inactive
CCCCCc1nc2c(c(=O)c3ccccc3n2C)c(=O)n1C1CCCCCC1 | active: 11.7 µM
O=C(N/N=C/c1ccccc1)c1ccc(CN2C(=O)c3cccc4cccc2c34)cc1 | inactive
CCC(=O)n1nc(-c2ccc(Cl)cc2)nc1NCc1ccccc1 | inconclusive: 18.5 µM [inhibitor, single point]

SMILES | Potency
Clc1ccc(-n2nnnc2-c2cnc(-c3ccncc3)nc2-c2cccs2)cc1 | inconclusive: 9.28 µM [inhibitor, partial curve, poor fit]
Cc1ccccc1Nc1nnc(SCC2CCCCO2)s1 (stereo not drawn) | inactive
CCCCN(C(=O)Cc1ccc2c(c1)OCCO2)c1c(N)n(CCC)c(=O)[nH]c1=O | inconclusive: 1.47 µM [inhibitor, partial curve, poor fit]
O=C(Cn1c(=O)n(Cc2ccco2)c(=O)c2cc(Cl)ccc21)NCC1CCCO1 (stereo not drawn) | inactive
O=C(NCc1ccco1)Nc1ccc(OC(F)(F)F)cc1 | inconclusive: 10.4 µM [inhibitor, partial curve]
COC(=O)c1ccccc1OCCOc1ccccc1C(=O)OC | inactive
C=CCn1c(SCC(=O)/C(C#N)=C(\C)N)nc2sc(CC)cc2c1=O | active: 10.4 µM
Cc1cccc(Cc2nnc(CCC(=O)N(C)CCc3ccccc3)o2)c1 | active: 11.7 µM
CCCCOc1ccc(CSC2=NCCN2)cc1[N+](=O)[O-] | active: 13.1 µM
COc1ccc(Nc2nc(-c3ccccc3F)nc3ccccc23)cc1OC | inconclusive: 18.5 µM [inhibitor, single point]
COc1ccc2c(c1)CCc1c(C(=O)NCc3ccco3)noc1-2 | inconclusive: 11.7 µM [inhibitor, single point]
CC1=NN(c2ccccc2)C(=O)/C1=C\c1ccc(Oc2ccc([N+](=O)[O-])cc2[N+](=O)[O-])cc1 | inactive
CC(=O)c1cccc(S(=O)(=O)NC2CC2)c1 | inactive
CS(=O)(=O)N1c2cccc3cccc(c23)S1(=O)=O | inactive
O=C(Nc1ccon1)Nc1cc(Cl)ccc1Cl | inconclusive: 11.7 µM [inhibitor, single point]
Fc1ccccc1NC(=S)N1CCCCC1 | inactive
O=C(NCc1ccccc1)C(c1ccccc1)N(C(=O)c1csnn1)c1ccccc1 (stereo not drawn) | inactive
O=C(Cc1ccc(Br)cc1)Nc1ccc(S(=O)(=O)NCC2CCCO2)cc1 (stereo not drawn) | inactive
CCOc1cc(N2CCOCC2)c(OCC)cc1NC(=O)COC(=O)c1ccccc1OC(F)F | inactive
Cc1cccn2c(=O)c(C(=O)NC3CC(C)CC(C)(C)C3)c(O)nc12 (stereo not drawn) | inconclusive: 11.7 µM [inhibitor, single point]
CCCCc1nc2cc(C(=O)NCCc3cnn(C)c3)ccc2o1 | active: 7.38 µM
COC(=O)c1ccc(NC(=S)NCCc2ccccc2C)cc1 | inactive
c1cc(C2CCN(Cc3nc(-c4ccc5c(c4)OCO5)no3)CC2)ccn1 | inconclusive: 18.5 µM [inhibitor, single point]
CC1Cc2cc(C3(O)C(=O)c4ccccc4C3=O)ccc2N1 (stereo not drawn) | inconclusive: 4.15 µM [inhibitor, single point]

Ten entries out of the list, ordered by count of non-hydrogen atoms, ascending:
SMILES | Potency
Fc1ccccc1NC(=S)N1CCCCC1 | inactive
Cc1ccccc1Nc1nnc(SCC2CCCCO2)s1 (stereo not drawn) | inactive
COC(=O)c1ccc(NC(=S)NCCc2ccccc2C)cc1 | inactive
COc1ccc2c(c1)CCc1c(C(=O)NCc3ccco3)noc1-2 | inconclusive: 11.7 µM [inhibitor, single point]
C=CCn1c(SCC(=O)/C(C#N)=C(\C)N)nc2sc(CC)cc2c1=O | active: 10.4 µM
c1cc(C2CCN(Cc3nc(-c4ccc5c(c4)OCO5)no3)CC2)ccn1 | inconclusive: 18.5 µM [inhibitor, single point]
COc1ccc(Nc2nc(-c3ccccc3F)nc3ccccc23)cc1OC | inconclusive: 18.5 µM [inhibitor, single point]
Clc1ccc(-n2nnnc2-c2cnc(-c3ccncc3)nc2-c2cccs2)cc1 | inconclusive: 9.28 µM [inhibitor, partial curve, poor fit]
O=C(NCc1ccccc1)C(c1ccccc1)N(C(=O)c1csnn1)c1ccccc1 (stereo not drawn) | inactive
CC1=NN(c2ccccc2)C(=O)/C1=C\c1ccc(Oc2ccc([N+](=O)[O-])cc2[N+](=O)[O-])cc1 | inactive
